This is one part of the list.
Columns and labels:
Experiment in all cases: log2 fold change, soluble protein after heating vs DMSO (PISA); higher = thermal stabilisation; K562 lysate, 10 uM; active = over 0.2 and 3.5 SD of the protein, either way, in both replicates (recomputed)
[1] = compound: CN1CC[C@H](c2c(O)cc(O)c3c(=O)cc(-c4ccccc4Cl)oc23)[C@H](O)C1 [alvocidib]
How it was run: (§1)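 Values give the log-two fold change in thermal stability against solvent controls, from duplicates. Crude K562 extract at 1 mg/mL protein, made by dounce homogenisation in PBS pH 7.4 with 1 mM MgCl2, was treated with 10 μM compound for 30 min. After 3 min heating across 48°C-58°C, aliquots were pooled, adjusted to 0.5% NP-40 at 4°C and centrifuged at 21,000xg for 90 min. The supernatant was measured by TMTpro 16plex LC-MS/MS with channel sums equalised.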

Sequences of proteins named here, by UniProt entry; tags and fusion partners are left off. A change or cut given only in a name is not applied to a line headed by its entry.
UniProt P35580, whole entry, looked up: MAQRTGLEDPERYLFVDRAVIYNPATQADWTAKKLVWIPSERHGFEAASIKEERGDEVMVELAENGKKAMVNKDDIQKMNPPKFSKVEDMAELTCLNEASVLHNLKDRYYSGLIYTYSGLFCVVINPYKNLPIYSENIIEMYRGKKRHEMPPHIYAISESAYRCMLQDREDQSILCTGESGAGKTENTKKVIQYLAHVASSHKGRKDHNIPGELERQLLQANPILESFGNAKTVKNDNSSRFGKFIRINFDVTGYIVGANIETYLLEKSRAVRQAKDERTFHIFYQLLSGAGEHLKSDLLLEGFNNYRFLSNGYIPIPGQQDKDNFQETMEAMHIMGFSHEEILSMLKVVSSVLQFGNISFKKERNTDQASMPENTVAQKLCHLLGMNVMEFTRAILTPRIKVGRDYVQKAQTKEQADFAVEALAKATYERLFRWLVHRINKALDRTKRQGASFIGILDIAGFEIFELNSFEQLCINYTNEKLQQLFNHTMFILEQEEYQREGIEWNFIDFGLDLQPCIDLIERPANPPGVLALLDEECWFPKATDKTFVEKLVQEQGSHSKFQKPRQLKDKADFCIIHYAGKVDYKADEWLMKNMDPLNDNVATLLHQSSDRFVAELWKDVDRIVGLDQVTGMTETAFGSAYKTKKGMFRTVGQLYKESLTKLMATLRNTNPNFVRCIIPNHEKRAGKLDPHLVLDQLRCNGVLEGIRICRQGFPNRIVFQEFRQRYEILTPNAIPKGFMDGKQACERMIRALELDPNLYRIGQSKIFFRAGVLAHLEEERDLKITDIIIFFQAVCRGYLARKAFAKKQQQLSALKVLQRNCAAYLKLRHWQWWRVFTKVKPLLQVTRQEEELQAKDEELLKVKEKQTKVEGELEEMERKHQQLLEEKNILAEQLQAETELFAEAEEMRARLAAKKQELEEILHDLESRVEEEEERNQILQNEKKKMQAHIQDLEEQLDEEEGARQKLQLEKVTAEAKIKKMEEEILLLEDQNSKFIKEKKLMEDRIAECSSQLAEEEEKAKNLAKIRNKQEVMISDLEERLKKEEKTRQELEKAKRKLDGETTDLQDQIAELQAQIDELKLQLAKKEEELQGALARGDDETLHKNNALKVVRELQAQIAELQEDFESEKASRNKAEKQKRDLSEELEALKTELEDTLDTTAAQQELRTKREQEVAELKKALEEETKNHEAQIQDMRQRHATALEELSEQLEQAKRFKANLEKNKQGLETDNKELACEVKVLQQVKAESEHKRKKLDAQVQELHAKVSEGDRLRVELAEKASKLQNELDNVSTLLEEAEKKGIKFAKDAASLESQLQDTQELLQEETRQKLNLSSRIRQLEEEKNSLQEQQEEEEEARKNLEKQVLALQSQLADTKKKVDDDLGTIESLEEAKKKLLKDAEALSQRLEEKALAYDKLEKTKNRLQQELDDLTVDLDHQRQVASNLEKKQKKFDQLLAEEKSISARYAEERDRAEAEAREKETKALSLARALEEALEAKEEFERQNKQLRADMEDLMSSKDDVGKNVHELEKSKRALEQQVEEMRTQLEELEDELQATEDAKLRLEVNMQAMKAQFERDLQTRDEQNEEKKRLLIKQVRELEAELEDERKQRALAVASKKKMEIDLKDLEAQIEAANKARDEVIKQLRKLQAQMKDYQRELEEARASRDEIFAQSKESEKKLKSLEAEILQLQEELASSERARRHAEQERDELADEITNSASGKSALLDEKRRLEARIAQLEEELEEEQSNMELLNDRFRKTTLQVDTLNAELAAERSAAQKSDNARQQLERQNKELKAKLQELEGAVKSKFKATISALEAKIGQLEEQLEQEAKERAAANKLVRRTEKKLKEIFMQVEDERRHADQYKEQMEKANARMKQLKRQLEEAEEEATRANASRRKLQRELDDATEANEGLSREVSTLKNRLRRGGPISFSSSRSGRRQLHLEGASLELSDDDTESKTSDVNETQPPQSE
UniProt P53602: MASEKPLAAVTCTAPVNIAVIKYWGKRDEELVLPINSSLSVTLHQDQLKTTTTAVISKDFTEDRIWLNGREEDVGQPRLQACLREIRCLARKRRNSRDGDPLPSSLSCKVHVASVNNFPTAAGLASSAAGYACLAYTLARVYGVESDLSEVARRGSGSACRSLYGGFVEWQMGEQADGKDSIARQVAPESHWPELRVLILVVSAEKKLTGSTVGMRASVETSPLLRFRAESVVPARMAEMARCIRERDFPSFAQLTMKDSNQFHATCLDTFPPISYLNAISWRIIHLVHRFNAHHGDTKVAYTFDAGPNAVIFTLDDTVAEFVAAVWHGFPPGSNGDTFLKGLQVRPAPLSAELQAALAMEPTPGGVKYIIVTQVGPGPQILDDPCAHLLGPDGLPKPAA
UniProt Q8NEY1: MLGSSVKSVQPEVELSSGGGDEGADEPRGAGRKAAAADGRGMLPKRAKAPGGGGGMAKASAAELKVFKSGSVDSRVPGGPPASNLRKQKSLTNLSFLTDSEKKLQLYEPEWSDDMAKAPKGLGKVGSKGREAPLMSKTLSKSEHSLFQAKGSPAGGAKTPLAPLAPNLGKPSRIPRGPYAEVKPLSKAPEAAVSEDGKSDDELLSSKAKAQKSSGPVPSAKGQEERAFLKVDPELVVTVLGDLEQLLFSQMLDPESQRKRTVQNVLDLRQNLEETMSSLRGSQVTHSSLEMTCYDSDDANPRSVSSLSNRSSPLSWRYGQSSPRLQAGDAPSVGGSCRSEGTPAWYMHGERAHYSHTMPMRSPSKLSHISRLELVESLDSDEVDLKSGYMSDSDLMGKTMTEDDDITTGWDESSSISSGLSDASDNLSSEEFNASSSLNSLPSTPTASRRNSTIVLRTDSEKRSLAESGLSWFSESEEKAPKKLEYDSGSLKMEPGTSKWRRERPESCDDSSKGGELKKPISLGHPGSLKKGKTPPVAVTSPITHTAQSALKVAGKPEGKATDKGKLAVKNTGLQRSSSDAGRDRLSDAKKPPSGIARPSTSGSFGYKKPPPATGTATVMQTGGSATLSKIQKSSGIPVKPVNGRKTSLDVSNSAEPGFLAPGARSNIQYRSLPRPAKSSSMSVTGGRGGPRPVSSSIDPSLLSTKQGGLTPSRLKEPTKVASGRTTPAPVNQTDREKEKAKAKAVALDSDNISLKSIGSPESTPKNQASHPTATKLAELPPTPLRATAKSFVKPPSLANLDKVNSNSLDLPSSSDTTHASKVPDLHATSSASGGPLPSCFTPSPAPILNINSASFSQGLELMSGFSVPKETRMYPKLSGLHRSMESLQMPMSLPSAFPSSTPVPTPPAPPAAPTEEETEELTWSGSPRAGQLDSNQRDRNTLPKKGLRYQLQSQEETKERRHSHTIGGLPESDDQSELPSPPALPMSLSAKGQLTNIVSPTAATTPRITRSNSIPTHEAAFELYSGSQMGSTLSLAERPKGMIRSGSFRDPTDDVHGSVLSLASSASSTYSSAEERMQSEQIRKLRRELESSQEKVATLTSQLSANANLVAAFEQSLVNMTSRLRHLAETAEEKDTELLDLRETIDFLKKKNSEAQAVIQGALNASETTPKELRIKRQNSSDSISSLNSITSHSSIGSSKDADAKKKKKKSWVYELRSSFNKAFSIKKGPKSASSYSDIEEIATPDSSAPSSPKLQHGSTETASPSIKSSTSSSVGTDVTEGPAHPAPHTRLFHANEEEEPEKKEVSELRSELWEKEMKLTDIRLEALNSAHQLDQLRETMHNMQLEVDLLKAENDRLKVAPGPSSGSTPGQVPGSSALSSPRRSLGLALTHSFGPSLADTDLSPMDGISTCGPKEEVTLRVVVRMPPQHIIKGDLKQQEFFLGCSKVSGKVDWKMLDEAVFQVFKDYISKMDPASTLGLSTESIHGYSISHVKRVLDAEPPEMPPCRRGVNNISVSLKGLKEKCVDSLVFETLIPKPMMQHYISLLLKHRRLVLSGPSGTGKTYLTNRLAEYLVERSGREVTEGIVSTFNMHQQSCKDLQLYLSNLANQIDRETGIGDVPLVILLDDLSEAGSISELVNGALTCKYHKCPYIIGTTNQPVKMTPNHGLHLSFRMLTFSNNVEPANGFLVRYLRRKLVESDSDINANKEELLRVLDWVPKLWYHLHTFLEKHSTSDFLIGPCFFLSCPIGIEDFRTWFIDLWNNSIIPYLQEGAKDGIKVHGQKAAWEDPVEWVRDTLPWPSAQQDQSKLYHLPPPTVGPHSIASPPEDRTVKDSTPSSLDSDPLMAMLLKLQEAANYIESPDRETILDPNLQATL
UniProt Q9H115: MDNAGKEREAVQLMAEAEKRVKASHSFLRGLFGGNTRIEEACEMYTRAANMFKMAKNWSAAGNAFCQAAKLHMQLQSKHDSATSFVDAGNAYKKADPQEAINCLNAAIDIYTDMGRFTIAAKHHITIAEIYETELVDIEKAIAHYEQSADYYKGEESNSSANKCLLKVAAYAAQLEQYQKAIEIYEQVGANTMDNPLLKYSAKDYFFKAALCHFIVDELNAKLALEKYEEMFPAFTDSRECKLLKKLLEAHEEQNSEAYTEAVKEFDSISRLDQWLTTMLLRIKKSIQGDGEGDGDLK
UniProt Q969V3: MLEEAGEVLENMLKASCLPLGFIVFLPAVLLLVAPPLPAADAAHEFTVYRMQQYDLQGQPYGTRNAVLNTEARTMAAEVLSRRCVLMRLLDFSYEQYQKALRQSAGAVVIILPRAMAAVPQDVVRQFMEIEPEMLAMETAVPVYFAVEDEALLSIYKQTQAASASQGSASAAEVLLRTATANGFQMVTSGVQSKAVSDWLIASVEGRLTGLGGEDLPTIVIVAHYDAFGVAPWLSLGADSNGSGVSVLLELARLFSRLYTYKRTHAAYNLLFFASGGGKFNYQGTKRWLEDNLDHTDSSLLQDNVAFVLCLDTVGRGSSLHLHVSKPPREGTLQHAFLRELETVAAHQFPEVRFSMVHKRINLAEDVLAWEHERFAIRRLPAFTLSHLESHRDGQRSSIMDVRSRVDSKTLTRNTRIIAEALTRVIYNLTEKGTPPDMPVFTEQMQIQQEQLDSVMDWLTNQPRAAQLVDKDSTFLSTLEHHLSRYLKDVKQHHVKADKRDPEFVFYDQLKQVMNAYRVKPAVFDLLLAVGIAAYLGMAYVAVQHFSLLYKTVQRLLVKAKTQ
UniProt Q8NCW5: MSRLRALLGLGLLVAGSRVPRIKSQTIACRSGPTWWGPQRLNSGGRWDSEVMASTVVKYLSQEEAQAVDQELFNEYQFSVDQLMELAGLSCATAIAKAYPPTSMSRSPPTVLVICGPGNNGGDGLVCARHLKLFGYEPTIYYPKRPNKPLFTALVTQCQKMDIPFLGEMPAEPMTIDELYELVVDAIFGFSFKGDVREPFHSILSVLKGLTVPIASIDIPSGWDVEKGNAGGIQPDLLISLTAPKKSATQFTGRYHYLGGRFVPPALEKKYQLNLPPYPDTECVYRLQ
UniProt Q6P582, whole entry, looked up: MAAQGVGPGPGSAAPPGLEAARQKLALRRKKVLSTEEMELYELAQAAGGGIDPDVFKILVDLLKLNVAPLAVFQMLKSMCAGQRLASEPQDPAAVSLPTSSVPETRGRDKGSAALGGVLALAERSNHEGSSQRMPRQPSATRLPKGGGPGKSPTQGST
UniProt Q03426, whole entry, looked up: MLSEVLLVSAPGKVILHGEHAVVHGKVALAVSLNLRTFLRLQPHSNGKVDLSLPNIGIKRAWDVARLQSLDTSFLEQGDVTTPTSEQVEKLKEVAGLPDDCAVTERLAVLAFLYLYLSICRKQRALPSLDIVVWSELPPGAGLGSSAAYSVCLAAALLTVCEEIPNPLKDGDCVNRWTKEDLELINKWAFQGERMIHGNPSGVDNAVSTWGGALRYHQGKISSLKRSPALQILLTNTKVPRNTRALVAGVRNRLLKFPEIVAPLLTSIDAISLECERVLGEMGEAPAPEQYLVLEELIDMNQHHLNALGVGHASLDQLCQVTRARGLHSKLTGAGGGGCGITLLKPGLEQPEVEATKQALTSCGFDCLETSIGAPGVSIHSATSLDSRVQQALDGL
UniProt Q99733: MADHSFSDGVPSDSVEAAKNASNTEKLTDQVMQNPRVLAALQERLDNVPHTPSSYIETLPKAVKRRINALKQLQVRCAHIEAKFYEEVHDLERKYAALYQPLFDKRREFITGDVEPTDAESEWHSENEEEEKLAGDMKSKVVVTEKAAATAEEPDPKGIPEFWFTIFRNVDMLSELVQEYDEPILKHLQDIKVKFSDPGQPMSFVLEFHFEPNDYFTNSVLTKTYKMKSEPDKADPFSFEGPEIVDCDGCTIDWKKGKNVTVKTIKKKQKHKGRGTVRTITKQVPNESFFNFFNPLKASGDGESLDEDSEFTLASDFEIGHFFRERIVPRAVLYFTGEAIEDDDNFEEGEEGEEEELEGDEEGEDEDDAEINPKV

[2] = compound: CN1CCc2c(c3ccccc3n2Cc2ccc(C(=O)NO)cc2)C1 [Tubastatin A]
How it was run: as §1

[3] = compound: CNC(=O)C1=CC=CC=C1NC2=NC(=NC=C2Cl)NC3=C(C=C(C=C3)N4CCOCC4)OC
How it was run: as §1

[4] = compound: CNC(=O)c1ccc(Nc2ncc(C(F)(F)F)c(NCc3nccnc3N(C)S(C)(=O)=O)n2)cc1 [defactinib]
How it was run: as §1

[5] = compound: CNc1nc(-c2ccc3c(N)n[nH]c3c2)cc(N2C[C@@H](C(=O)NC3CCCCC3)CC[C@H]2C)n1
How it was run: as §1

[6] = compound: COC(=O)N[C@@H](C)CNc1nccc(-c2cn(C(C)C)nc2-c2cc(Cl)cc(NS(C)(=O)=O)c2F)n1 [encorafenib]
How it was run: as §1

[7] = compound: COC(=O)[C@H](CCSC)NC(=O)C1=C(C=C(C=C1)NC[C@H](CS)N)C2=CC=CC=C2
How it was run: as §1

[8] = compound: COc1cc(Nc2ncc3c(n2)-c2ccc(Cl)cc2C(c2c(F)cccc2OC)=NC3)ccc1C(=O)O [alisertib]
How it was run: as §1

[9] = compound: COc1cc2nc(-c3cc(F)ccc3O)nc(N[C@@H]3CNC[C@H]3C(C)(C)O)c2cc1OC
How it was run: as §1

[10] = compound: COc1cc2ncnc(Nc3ccc(F)c(Cl)c3)c2cc1OCCCN1CCOCC1 [gefitinib]
How it was run: as §1

[11] = compound: CS(=O)(=O)CCNCc1ccc(-c2ccc3ncnc(Nc4ccc(OCc5cccc(F)c5)c(Cl)c4)c3c2)o1 [lapatinib]
How it was run: as §1

[12] = compound: CS(=O)(=O)N1CCN(Cc2cc3nc(-c4cccc5[nH]ncc45)nc(N4CCOCC4)c3s2)CC1 [pictilisib]
How it was run: as §1

[13] = compound: C[C@@H](Oc1cc(-c2cnn(C3CCNCC3)c2)cnc1N)c1c(Cl)ccc(F)c1Cl [crizotinib]
How it was run: as §1

[14] = compound: C[C@H](C1=CC=C(C=C1)C(=O)NC2=C3C=CNC3=NC=C2)N
How it was run: as §1

[15] = compound: C[C@H](Nc1ncnc2nc[nH]c12)c1cc2cccc(Cl)c2c(=O)n1-c1ccccc1 [duvelisib]
How it was run: as §1

[16] = compound: Cc1cc(Nc2cc(CN3CCOCC3)c3nc(C)c(Cc4ccc(Cl)cc4F)n3n2)n[nH]1 [gandotinib]
How it was run: as §1

[17] = compound: Cc1cc(Nc2cc(N3CCN(C)CC3)nc(Sc3ccc(NC(=O)C4CC4)cc3)n2)n[nH]1 [tozasertib]
How it was run: as §1

[18] = compound: Cc1ccc(-n2nc(C(C)(C)C)cc2NC(=O)Nc2ccc(OCCN3CCOCC3)c3ccccc23)cc1 [doramapimod]
How it was run: as §1

[19] = compound: Cc1ccc(NC(=O)c2ccc(CN3CC[C@H](N(C)C)C3)c(C(F)(F)F)c2)cc1Nc1nccc(-c2cncnc2)n1 [bafetinib]
How it was run: as §1

[20] = compound: Cc1cccc(CC(=O)N2CCc3c2ccc(-c2cn(C)c4ncnc(N)c24)c3F)n1
How it was run: as §1

Measured: log2 fold change

MYH10 isoform 3 (UniProt P35580)
inactive: [1] 0.002 | [2] 0.001 | [3] -0.007 | [4] -0.019 | [5] 0.011 | [6] -0.008 | [7] -0.018 | [8] -0.005 | [9] 0.025 | [10] -0.007 | [11] -0.064 | [12] -0.003 | [13] 0.02 | [14] 0.018 | [15] 0.019 | [16] -0.029 | [17] 0.012 | [18] -0.007 | [19] 0.014 | [20] -0.011

NCR3LG1 (UniProt Q68D85)
inactive: [1] 0.044 | [2] 0.007 | [3] -0.034 | [4] -0.051 | [5] -0.013 | [6] -0.041 | [7] -0.06 | [8] -0.007 | [9] -0.021 | [10] 0.038 | [11] -0.01 | [12] -0.055 | [13] 0.037 | [14] -0.001 | [15] 0.026 | [16] 0.011 | [17] -0.044 | [18] -0.03 | [19] 0.037 | [20] -0.044

NACA (UniProt E9PAV3)
inactive: [1] -0.054 | [2] 0.045 | [3] -0.006 | [4] 0.015 | [5] 0.038 | [6] 0.012 | [7] -0.029 | [8] 0 | [9] 0.011 | [10] -0.007 | [11] -0.01 | [12] 0.008 | [13] -0.015 | [14] -0.147 | [15] 0.042 | [16] 0.053 | [17] -0.021 | [18] -0.016 | [19] 0.019 | [20] 0.115

MVD (UniProt P53602)
inactive: [1] 0.033 | [2] -0.03 | [3] -0.032 | [4] -0.012 | [5] 0.03 | [6] -0.004 | [7] 0.048 | [8] -0.006 | [9] -0.01 | [10] 0.001 | [11] -0.009 | [12] 0.011 | [13] 0.004 | [14] 0.078 | [15] 0.01 | [16] -0.027 | [17] -0.007 | [18] -0.039 | [19] -0.032 | [20] -0.038

NCBP1 (UniProt Q09161)
inactive: [1] -0.009 | [2] -0.076 | [3] -0.013 | [4] -0.013 | [5] -0.022 | [6] 0.021 | [7] 0.019 | [8] 0.014 | [9] 0.002 | [10] 0.003 | [11] -0.009 | [12] 0 | [13] -0.048 | [14] -0.055 | [15] 0 | [16] -0.035 | [17] -0.008 | [18] -0.011 | [19] -0.038 | [20] 0.068

NAV1 (UniProt Q8NEY1)
inactive: [1] -0.072 | [2] -0.052 | [3] -0.013 | [4] -0.103 | [5] 0.068 | [6] 0.086 | [7] 0.033 | [8] 0.04 | [9] 0.018 | [10] -0.002 | [11] 0.011 | [12] 0.09 | [13] -0.075 | [14] -0.103 | [15] -0.02 | [16] -0.121 | [17] -0.016 | [18] 0.035 | [19] -0.068 | [20] 0.292

NAGK isoform 2 (UniProt Q9UJ70)
inactive: [1] -0.016 | [2] 0.016 | [3] 0.043 | [4] -0.03 | [5] 0.012 | [6] 0.005 | [7] -0.032 | [8] -0.066 | [9] -0.04 | [10] 0.018 | [11] -0.01 | [12] 0.001 | [13] 0.007 | [14] -0.042 | [15] -0.011 | [16] 0.05 | [17] -0.025 | [18] 0.044 | [19] 0.048 | [20] 0.017

MYSM1 (UniProt Q5VVJ2)
inactive: [1] -0.035 | [2] -0.007 | [3] 0.01 | [4] 0.023 | [5] 0.073 | [6] 0.034 | [7] 0.074 | [8] -0.045 | [9] 0.007 | [10] 0.058 | [11] 0.078 | [12] -0.048 | [13] -0.011 | [14] -0.056 | [15] 0.014 | [16] 0.062 | [17] -0.059 | [18] 0.04 | [19] 0 | [20] 0.054

NAPB (UniProt Q9H115)
inactive: [1] 0.113 | [2] 0.014 | [3] 0.03 | [4] 0.166 | [5] 0.121 | [6] 0.012 | [7] -0.05 | [8] 0.024 | [9] -0.014 | [10] -0.118 | [11] 0.03 | [12] -0.002 | [13] 0.046 | [14] 0.083 | [15] 0.019 | [16] -0.057 | [17] -0.01 | [18] -0.109 | [19] 0.09 | [20] -0.155

NAE1 (UniProt Q13564)
inactive: [1] 0.01 | [2] -0.023 | [3] 0.01 | [4] 0.02 | [5] -0.013 | [6] -0.007 | [7] 0.03 | [8] 0.004 | [9] 0.008 | [10] -0.026 | [11] -0.013 | [12] -0.023 | [13] -0.007 | [14] -0.016 | [15] -0.002 | [16] -0.025 | [17] -0.021 | [18] 0.001 | [19] 0.046 | [20] -0.011

NCDN isoform 3 (UniProt Q9UBB6)
inactive: [1] 0.025 | [2] -0.099 | [3] 0.014 | [4] 0.007 | [5] -0.015 | [6] 0.01 | [7] -0.072 | [8] -0.003 | [9] 0.002 | [10] -0.01 | [11] -0.023 | [12] -0.037 | [13] -0.025 | [14] 0.065 | [15] -0.017 | [16] -0.135 | [17] -0.017 | [18] -0.002 | [19] -0.011 | [20] 0.009

NCLN (UniProt Q969V3)
inactive: [1] 0.018 | [2] -0.003 | [3] -0.012 | [4] 0.011 | [5] -0.004 | [6] 0.029 | [7] -0.023 | [8] 0.028 | [9] -0.079 | [10] -0.003 | [11] -0.023 | [12] -0.003 | [13] -0.029 | [14] -0.045 | [15] -0.014 | [16] -0.054 | [17] 0.013 | [18] -0.004 | [19] -0.057 | [20] 0.049

NAXE (UniProt Q8NCW5)
inactive: [1] 0.038 | [2] 0.079 | [3] 0 | [4] 0.06 | [5] 0.027 | [6] -0.007 | [7] -0.003 | [8] -0.017 | [9] 0.001 | [10] -0.003 | [11] 0.008 | [12] -0.008 | [13] 0.046 | [14] 0.024 | [15] -0.016 | [16] -0.031 | [17] 0 | [18] -0.011 | [19] 0.002 | [20] -0.003

MZT2A (UniProt Q6P582)
inactive: [1] 0.083 | [2] -0.042 | [3] -0.046 | [4] -0.039 | [5] -0.041 | [6] 0.005 | [7] -0.24 | [8] 0.103 | [9] -0.032 | [10] 0.027 | [11] -0.015 | [12] 0.003 | [13] 0.049 | [14] 0.136 | [15] -0.075 | [16] -0.174 | [17] 0.035 | [18] -0.024 | [19] 0.098 | [20] -0.154

Taken from the entries so far (3 entries):
NAPB (UniProt Q9H115)
inactive: [1] 0.113 | [2] 0.014 | [3] 0.03 | [4] 0.166 | [5] 0.121 | [6] 0.012 | [7] -0.05 | [8] 0.024 | [9] -0.014 | [10] -0.118 | [11] 0.03 | [12] -0.002 | [13] 0.046 | [14] 0.083 | [15] 0.019 | [16] -0.057 | [17] -0.01 | [18] -0.109 | [19] 0.09 | [20] -0.155

NAE1 (UniProt Q13564)
inactive: [1] 0.01 | [2] -0.023 | [3] 0.01 | [4] 0.02 | [5] -0.013 | [6] -0.007 | [7] 0.03 | [8] 0.004 | [9] 0.008 | [10] -0.026 | [11] -0.013 | [12] -0.023 | [13] -0.007 | [14] -0.016 | [15] -0.002 | [16] -0.025 | [17] -0.021 | [18] 0.001 | [19] 0.046 | [20] -0.011

NCDN isoform 3 (UniProt Q9UBB6)
inactive: [1] 0.025 | [2] -0.099 | [3] 0.014 | [4] 0.007 | [5] -0.015 | [6] 0.01 | [7] -0.072 | [8] -0.003 | [9] 0.002 | [10] -0.01 | [11] -0.023 | [12] -0.037 | [13] -0.025 | [14] 0.065 | [15] -0.017 | [16] -0.135 | [17] -0.017 | [18] -0.002 | [19] -0.011 | [20] 0.009

Remaining list, next part:

MVK (UniProt Q03426)
inactive: [1] -0.001 | [2] -0.005 | [3] -0.01 | [4] -0.026 | [5] -0.006 | [6] 0.007 | [7] 0.017 | [8] 0.005 | [9] -0.013 | [10] -0.013 | [11] 0.007 | [12] 0.003 | [13] -0.021 | [14] -0.051 | [15] 0.007 | [16] -0.01 | [17] 0 | [18] 0.071 | [19] -0.006 | [20] 0.03

NAP1L4 isoform 2 (UniProt Q99733)
inactive: [1] 0.014 | [2] 0.004 | [3] -0.011 | [4] 0.034 | [5] 0.003 | [6] -0.014 | [7] 0.001 | [8] -0.005 | [9] -0.015 | [10] 0.006 | [11] 0.044 | [12] 0.034 | [13] 0.019 | [14] 0.048 | [15] -0.012 | [16] -0.041 | [17] 0.01 | [18] -0.047 | [19] 0.043 | [20] -0.048
